# Source: patent US10676504B2 (Colorado State University Research Foundation, priority 2015, dated 2020)
# pIC50: −log10 of the molar value. Some entries share one result that the patent states for a list of compounds. At least one structure is not confirmed: it was looked up by name or label, or the drawing left a doubt.
# Test system: HDACs 1-3
# Test: HDAC biochemical assay of P5-P12, summary statements
# Details: text bound
smiles,measurement,value
"CC(C)[C@@H]1NC(=O)[C@]2(C)CSC(=N2)c2ccnc(c2)CNC(=O)C[C@@H](/C=C/CCS)NC1=O [Compound P12, Peptide Isostere Pyridyl “OUT” Thiol]",pIC50,> 7.60
